Binding data for one molecule are collected here from PMC5146945.

The experiment addresses CaTLP1-FLAG fusion protein (chickpea). Description: affinity purification with mass spectrometry; anti-FLAG antibody on rProtein A Sepharose; extract of 5-week-old CaTLP1-FLAG overexpressing Arabidopsis (OE-11) in 50 mM HEPES-KOH pH 7.5, 0.15 M NaCl, 0.5% Triton X-100, 0.1% Tween 20; 4 °C, 16 h; LC-ESI/MS/MS of the immunoprecipitate.

No constants are given. Whether binding was seen depends on the method and setting. In cells and extracts the contact can be indirect. A yes stands for co-enrichment or nearness to the bait. Other partners may have been found.

B1: Casein kinase 1-like protein 2 (CK2) from Arabidopsis (protein, UniProt Q9CAI5 1-465)
chain: MEPRVGNKFRLGRKIGGGSFGEIYLGTNIQTNEEVAIKLENVKTKHPQLLYESKLYKVLQGGTGVPNVKWYGVEGDYNVLVIDLLGPSLEDLFNFCSRKLSLKTVLMLADQMINRIEFVHQKSFLHRDIKPDNFLMGLGRRANQVYVIDFGLAKKYRDSNHQHIPYRENKNLTGTARYASMNTHLGIEQSRRDDLESLGFVLMYFLKGSLPWQGLKAGNKKQKYEKISEKKVSTSIEALCRGYPSEFASYFHYCRSLRFDDKPDYAYLKRLFRDLFIREGFQFDYVFDWTILKYQQSQISTPPPRHHGPVVGPSSALPPAITSAERPSGGDEARPSGWSSGIPRRNSGQIFNSGSLAKQKAPVSSDPAISKDVVLSSSSFLRATGSSRRAAVSSSREAAVLGTDSEPSNPQIVEAGSGSNSKIPVSRNSPIVSSEINKLSSPSRATTSVMKNYEANLKGIESLHF
With B1, the binding entry is on record as “binds”.
